Results of single-concentration screens

Amino acid sequences for entries named in this document (tags omitted). Residues count along the entry.
UniProt I6X8D2, whole entry: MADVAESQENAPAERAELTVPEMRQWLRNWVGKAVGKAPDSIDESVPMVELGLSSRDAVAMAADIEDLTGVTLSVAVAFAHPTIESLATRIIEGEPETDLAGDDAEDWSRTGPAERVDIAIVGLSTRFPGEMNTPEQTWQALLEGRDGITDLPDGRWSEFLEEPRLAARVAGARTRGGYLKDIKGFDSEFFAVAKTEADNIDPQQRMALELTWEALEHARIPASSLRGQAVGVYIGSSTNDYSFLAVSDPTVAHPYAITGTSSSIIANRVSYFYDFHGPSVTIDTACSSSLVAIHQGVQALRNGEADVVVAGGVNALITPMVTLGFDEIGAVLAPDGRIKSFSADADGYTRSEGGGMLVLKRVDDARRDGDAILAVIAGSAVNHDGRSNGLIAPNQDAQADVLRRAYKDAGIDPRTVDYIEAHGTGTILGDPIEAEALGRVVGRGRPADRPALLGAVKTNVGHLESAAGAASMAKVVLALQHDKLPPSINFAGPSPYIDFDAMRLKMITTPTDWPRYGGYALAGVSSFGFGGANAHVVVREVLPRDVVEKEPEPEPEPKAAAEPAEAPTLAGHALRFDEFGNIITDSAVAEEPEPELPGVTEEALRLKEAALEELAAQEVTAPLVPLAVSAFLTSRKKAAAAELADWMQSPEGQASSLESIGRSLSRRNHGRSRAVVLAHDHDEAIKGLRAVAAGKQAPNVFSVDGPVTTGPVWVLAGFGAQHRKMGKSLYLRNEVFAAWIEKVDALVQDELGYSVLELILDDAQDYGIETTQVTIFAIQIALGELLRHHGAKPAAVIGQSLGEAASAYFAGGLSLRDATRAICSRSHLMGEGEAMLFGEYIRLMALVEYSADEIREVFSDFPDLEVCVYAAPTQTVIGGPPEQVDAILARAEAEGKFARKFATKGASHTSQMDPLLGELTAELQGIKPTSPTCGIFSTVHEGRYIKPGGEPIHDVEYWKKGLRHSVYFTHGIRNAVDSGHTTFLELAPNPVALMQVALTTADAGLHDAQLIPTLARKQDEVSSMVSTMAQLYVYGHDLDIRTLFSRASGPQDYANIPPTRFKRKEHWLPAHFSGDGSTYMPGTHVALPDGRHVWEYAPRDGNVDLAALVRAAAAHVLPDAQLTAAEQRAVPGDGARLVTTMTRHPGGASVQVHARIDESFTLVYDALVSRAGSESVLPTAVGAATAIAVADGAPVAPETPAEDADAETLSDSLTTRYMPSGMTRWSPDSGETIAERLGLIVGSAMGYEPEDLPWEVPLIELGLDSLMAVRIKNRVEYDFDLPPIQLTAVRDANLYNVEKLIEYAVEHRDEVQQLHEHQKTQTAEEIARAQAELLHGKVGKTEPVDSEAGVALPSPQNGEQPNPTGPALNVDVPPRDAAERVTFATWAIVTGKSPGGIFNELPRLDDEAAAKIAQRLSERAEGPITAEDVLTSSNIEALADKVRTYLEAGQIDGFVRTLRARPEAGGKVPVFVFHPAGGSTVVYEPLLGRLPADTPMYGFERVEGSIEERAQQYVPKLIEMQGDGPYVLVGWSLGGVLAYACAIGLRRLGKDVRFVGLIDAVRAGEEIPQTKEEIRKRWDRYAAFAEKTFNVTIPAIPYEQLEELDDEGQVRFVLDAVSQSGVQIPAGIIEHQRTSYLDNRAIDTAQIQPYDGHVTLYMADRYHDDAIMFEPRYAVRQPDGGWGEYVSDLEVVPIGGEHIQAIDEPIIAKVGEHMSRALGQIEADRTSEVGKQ
UniProt Q8IDJ8, 1-583: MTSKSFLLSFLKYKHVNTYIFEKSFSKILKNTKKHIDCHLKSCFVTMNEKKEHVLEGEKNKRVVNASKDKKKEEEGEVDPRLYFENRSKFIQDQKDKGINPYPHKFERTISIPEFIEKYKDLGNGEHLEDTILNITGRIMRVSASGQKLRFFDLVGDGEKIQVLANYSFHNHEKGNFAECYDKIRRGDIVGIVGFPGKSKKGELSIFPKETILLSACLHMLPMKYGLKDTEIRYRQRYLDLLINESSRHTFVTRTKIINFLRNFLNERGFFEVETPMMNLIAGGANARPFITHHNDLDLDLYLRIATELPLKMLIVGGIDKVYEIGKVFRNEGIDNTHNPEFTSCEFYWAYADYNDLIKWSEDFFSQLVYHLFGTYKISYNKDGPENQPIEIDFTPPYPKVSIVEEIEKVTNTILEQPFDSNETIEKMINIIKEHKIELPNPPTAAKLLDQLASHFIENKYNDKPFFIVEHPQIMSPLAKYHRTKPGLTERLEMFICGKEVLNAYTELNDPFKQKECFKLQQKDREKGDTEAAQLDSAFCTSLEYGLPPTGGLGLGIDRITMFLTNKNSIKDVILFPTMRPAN
UniProt A4I591, 1-473: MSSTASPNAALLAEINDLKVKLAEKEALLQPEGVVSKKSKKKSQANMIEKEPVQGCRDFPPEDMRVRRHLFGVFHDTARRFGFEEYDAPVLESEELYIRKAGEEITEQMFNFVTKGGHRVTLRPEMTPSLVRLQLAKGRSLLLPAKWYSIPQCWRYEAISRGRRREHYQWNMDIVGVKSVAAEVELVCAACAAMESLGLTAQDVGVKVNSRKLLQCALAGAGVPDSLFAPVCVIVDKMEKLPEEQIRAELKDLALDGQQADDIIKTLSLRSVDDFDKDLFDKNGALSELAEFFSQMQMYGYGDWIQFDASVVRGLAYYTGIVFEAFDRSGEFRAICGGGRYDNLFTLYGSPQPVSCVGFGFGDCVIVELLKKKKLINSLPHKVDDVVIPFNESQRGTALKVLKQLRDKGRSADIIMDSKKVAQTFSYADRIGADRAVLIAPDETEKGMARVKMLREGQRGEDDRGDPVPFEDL
UniProt P9WFT3, whole entry: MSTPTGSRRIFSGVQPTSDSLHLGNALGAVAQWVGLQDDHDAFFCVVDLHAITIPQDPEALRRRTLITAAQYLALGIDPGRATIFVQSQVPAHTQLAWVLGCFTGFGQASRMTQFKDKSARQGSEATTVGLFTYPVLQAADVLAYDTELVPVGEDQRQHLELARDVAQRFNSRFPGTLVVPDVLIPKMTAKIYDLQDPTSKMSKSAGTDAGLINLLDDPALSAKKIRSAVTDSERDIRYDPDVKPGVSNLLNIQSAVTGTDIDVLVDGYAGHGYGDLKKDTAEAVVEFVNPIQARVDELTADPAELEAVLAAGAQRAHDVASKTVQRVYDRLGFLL

From ChEMBL document CHEMBL3988442, “University of Dundee, Small-Polar-MMV Screening Library” (2021).

Each number is a percent effect as filed. How 0% and 100% were set is not recorded. Most values in the screen are low, and negative values occur. Compounds were drawn at random from those tested, without regard to their results. A dash means the value is not listed here; it may have been measured.

Pks13 thioesterase: 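Polyketide synthase Pks13, Mycobacterium tuberculosis (UniProt I6X8D2). Enzyme assay of the thioesterase domain of polyketide synthase 13; the read-out is not stated. Compounds at 30 µM. Higher reads as stronger inhibition (inferred from which compounds were picked for retests). About 67,000 compounds were tested under these conditions; 0.46% (about 300) showed 50% or more at least once.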
PfKRS1: 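Enzyme assay of the cytosolic lysyl-tRNA synthetase in 384-well plates, read by luminescence. Target: Lysine-tRNA ligase, Plasmodium falciparum 3D7 (UniProt Q8IDJ8). Concentration: 30 µM. Direction is inferred from only a few compounds that gave an IC50; most scored high, so higher reads as stronger inhibition. Size under these conditions: about 69,000 compounds, about 49 of them at 50% or above in at least one test.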
LiHisRS: 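Enzyme assay of histidyl-tRNA synthetase; the read-out is not stated. Target: Histidine-tRNA ligase, Leishmania infantum (UniProt A4I591). Concentration: 30 µM. Direction is inferred from retests: higher values go with stronger inhibition. The assay is labelled LdHisRS but filed under L. infantum. Of about 69,000 compounds tested this way, about 410 (0.6%) reached 50% or more in at least one test.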
MtTrpRS: 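Tryptophan-tRNA ligase, Mycobacterium tuberculosis (UniProt P9WFT3). Enzyme assay of tryptophanyl-tRNA synthetase; the read-out is not stated. Compounds at 10 µM. Direction is not recorded; retested compounds ran higher, which suggests that high means inhibition. About 65,000 compounds were tested under these conditions; 0.098% (about 64) showed 50% or more at least once.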

| # | SMILES | Pks13 thioesterase | PfKRS1 | LiHisRS | MtTrpRS |
|---|---|---|---|---|---|
| 1 | `COc1cc(CNC(=O)c2cc(Cl)ccc2F)ccn1` | 0.4696 | 8.237 | 7.965 | -4.534 |
| 2 | `c1ccc2c(c1)C(NC1CCCC1)CC21CCNCC1` (stereo not given) | -6.432 | 4.051 | 2.703 | - |
| 3 | `CCN1CC(C(=O)NCc2ccc3c(c2)nc(C)n3C)CCC1=O` (stereo not given) | -9.883 | 3.608 | 20.65 | 2.022 |
| 4 | `CC(Cn1ccnc1)NC(=O)NCCN1CCc2ccccc2C1` (stereo not given) | -61.08 | 2.752 | 17.24 | -3.067 |
| 5 | `COc1ccccc1N1CCC(CNS(=O)(=O)c2cccs2)C1` (stereo not given) | 80.89 | -0.8165 | 19.84 | -4.257 |
| 6 | `O=C(NCc1nncn1C1CCCCC1)C1COc2ccccc2O1` (stereo not given) | -9.654 | 2.267 | 14.75 | -3.051 |
| 7 | `Cc1noc([C@@H]2C[C@H](NC(=O)C3CCCCC3)CN2C)n1` | 16.12 | 3.96 | -1.351 | -1.897 |
| 8 | `O=C(O)CC(NC(=O)c1cc(Br)c[nH]1)c1ccccc1` (stereo not given) | -34.16 | 4.354 | 20 | -10.52 |
| 9 | `c1ccc(CN2CCCC3(CCN(Cc4cccs4)C3)C2)nc1` (stereo not given) | -11.23 | 6.82 | 21.1 | -7.794 |
| 10 | `CCN1CC2(CCCCN2C(=O)C2CCCCC2)CC1=O` (stereo not given) | -4.234 | 4.308 | 5.172 | -3.344 |
| 11 | `O=C(NCc1nncn1-c1ccccc1)C1CC(=O)N(CC2CC2)C1` (stereo not given) | 30.44 | 10.98 | 9.524 | 0.07825 |
| 12 | `Cc1nc(CNC(=O)NCC2(C)CCCc3ccccc32)no1` (stereo not given) | 0.8447 | -1.729 | 20.83 | 6.004 |
| 13 | `O=C(NCCOc1ccc(Cl)cn1)Nc1cccnc1` | -16.64 | 2.807 | 7.143 | 2.347 |
| 14 | `Cc1cc(C)c(C(=O)N2CCn3nc(C(=O)NCCN(C)C)cc3C2)[nH]1` | -0.2714 | 4.969 | 3.226 | -2.424 |
| 15 | `CCOCC(O)CN1CCN(C(=O)c2cccc(OC)c2)CC1` (stereo not given) | -17.28 | 1.342 | 9.615 | -8.847 |
| 16 | `CCc1nc2n(n1)CC(NCc1cnn(-c3ccccc3)n1)CC2` (stereo not given) | -21.75 | -0.1406 | 21.3 | -1.471 |
| 17 | `Cc1nc(CN2C[C@@H]3CN(C(=O)c4ccoc4C)C[C@@H]3C2)cs1` | 5.081 | 1.067 | 26.6 | 0.4122 |
| 18 | `O=C(C1CCSCC1)N1CCC2(CC1)COC(COCC1CC1)C2` (stereo not given) | -13.75 | 3.084 | 12.82 | -2.186 |
| 19 | `CC1=C(C#N)C(=O)NC(=O)/C1=C\c1c(C)nn(-c2ccccc2)c1O` | 21.27 | 3.891 | 43.3 | - |
| 20 | `CN(Cc1ccc(-n2cccn2)cc1)C(=O)CCC(F)(F)F` | 34.87 | 4.665 | 22.83 | -3.266 |
| 21 | `O=C(CCc1nnc(-c2ccccc2)o1)N1CCCC1c1ccccn1` (stereo not given) | -8.355 | -2.187 | 4.819 | 0.1569 |
| 22 | `CN(C)C(=O)c1cccc(C2CCN(c3ncccn3)CC2)n1` | -4.57 | 3.153 | 5.634 | -0.2038 |
| 23 | `O=C1CN(c2ccc(CNC(=O)c3cccnc3O)cc2F)CCN1` | -23.65 | 2.022 | 11.29 | -1.801 |
| 24 | `CC(C)c1nc(CC(=O)N(C)Cc2ccc3c(c2)OCO3)cs1` | -12.85 | 5.254 | 9.091 | -5.273 |
| 25 | `CN(CC(N)=O)C(=O)c1csc(Br)c1` | -19.02 | 9.829 | 15.05 | -0.25 |
| 26 | `COc1ccc(CCN2CCCC2Cn2nc(C)nc2C)cc1` (stereo not given) | -24.07 | 5.89 | 7.865 | 1.023 |
| 27 | `Cc1oc(-c2cccs2)nc1C(=O)N(C)C1(C#N)CCC1` | - | 3.939 | 21.13 | -1.715 |
| 28 | `COc1ncc(NS(=O)(=O)c2cccc(C)c2)c(OC)n1` | -3.742 | -0.4732 | -6.78 | -0.3943 |
| 29 | `Cc1cnn(CC2CCCN2CC(=O)Nc2cc(C)no2)c1` (stereo not given) | -17.13 | 2.13 | 0 | -0.05679 |
| 30 | `O=C(Nc1cc(-c2ccccn2)no1)C1CC1` | 11.9 | 3.627 | 29.41 | 16.95 |
| 31 | `c1ccc2sc(N3CCC4(CCCN4Cc4ncc[nH]4)CC3)nc2c1` | -20.68 | 5.796 | 16.46 | -0.8961 |
| 32 | `COc1cccc(OCC2CCCN(Cc3ncc[nH]3)C2)c1` (stereo not given) | -36.86 | 1.377 | 1.266 | -8.423 |
| 33 | `COC(=O)C(NC(=O)C1CCC1)c1cc(F)ccc1F` (stereo not given) | -6.624 | 0.9405 | 7.692 | -3.626 |
| 34 | `CC(C)=CCN1CCN(Cc2nccn2C)C(C)C1` (stereo not given) | -31 | -0.8305 | 3.67 | 22.16 |
| 35 | `CC(C)Cn1ncc(C(=O)NS(=O)(=O)C2CCCC2)c1C1CC1` | 1.738 | 4.796 | 12.39 | 1.361 |
| 36 | `c1cnc(N2CCN3C[C@H](Oc4cncnc4)C[C@H]3C2)nc1` | 3.599 | 4.881 | 7.692 | - |
| 37 | `Cc1ccsc1CNC(=O)c1ccc(N2CCNC2=O)cc1` | 3.287 | 5.473 | 7.018 | -8.111 |
| 38 | `O=C(NC[C@@]1(COc2cnccn2)C[C@@H](O)[C@@H](O)C1)C1CC1` | 7.649 | -4.26 | 5.405 | 2.975 |
| 39 | `O=C(c1ccn(-c2cccc(F)c2)n1)N1CCN(CC2CC2)CC1` | -35.02 | 1.451 | 18.18 | 1.385 |
| 40 | `CN1CCC/C1=N\S(=O)(=O)c1ccc(NC(=O)c2ccco2)cc1` | -20.58 | -0.4823 | -1.709 | 16.07 |
| 41 | `Fc1ccc(N2CCOC(Cc3cccnc3)C2)cc1` (stereo not given) | 15.1 | 1.083 | -5.263 | 1.449 |
| 42 | `Cc1cc(C[S+]([O-])Cc2ccccc2F)no1` (stereo not given) | -21.57 | 0.04944 | 12.39 | 2.041 |
| 43 | `CC(C)(C)Cc1nnc(NCc2cccc(C#N)c2)o1` | -27.62 | 2.376 | 16.13 | 1.065 |
| 44 | `Cc1ccc(C(=O)NCC(C)Cn2cccn2)c(=O)[nH]1` (stereo not given) | -10.43 | 4.655 | 19.4 | -1.729 |
| 45 | `CCOc1cc(C)nc(N2CCN(C(=O)c3ccnn3C)CC2)n1` | -11.96 | 4.26 | -252.3 | 0.09717 |
| 46 | `c1ccc2[nH]c(C3CCN(Cc4nnc(C5CC5)o4)CC3)cc2c1` | -1.519 | 4.08 | 32.88 | -3.916 |
| 47 | `O=C(Nc1ccccc1C(=O)NCCCN1CCOCC1)c1ccco1` | - | -0.3584 | 7.752 | 3.366 |
| 48 | `COCCN1C(=O)CO[C@H]2CN(CCCc3ccccc3)C[C@H]21` | 16.54 | 2.848 | 24.32 | 1.754 |
| 49 | `Cc1cc(CN2CCN(C(=O)NCc3cccs3)CC2)no1` | 0.5568 | -0.5343 | 10.71 | -4.932 |
| 50 | `CNc1cncc(C2CCCN2C(=O)c2ccc3c(c2)CCC3)n1` (stereo not given) | 12.31 | 1.424 | 30.43 | - |
| 51 | `Cc1ccoc1C(=O)N1CCC(n2cc(CO)nn2)CC1` | -14.07 | -1.531 | 7.042 | 4.259 |
| 52 | `CN(CC1(O)CCN(c2ccnc3ccncc23)CC1)C(=O)CCN` | 8.117 | 3.181 | 12.08 | -4.023 |
| 53 | `Cc1nccn1CCCn1cncc1-c1ccc2c(c1)CCCN2C` | -9.497 | 1.358 | 30.87 | -8.925 |
| 54 | `Cc1cccc(N2CC3(CCN(c4nncs4)C3)CC2=O)c1` (stereo not given) | -11.6 | -1.273 | 19.44 | -5.717 |
| 55 | `CN(C)CCNc1ccc(-c2nc(COc3ccccc3)no2)cn1` | -12.97 | 3.643 | 8.571 | -2.519 |

The last 4 entries again:

CN(CC1(O)CCN(c2ccnc3ccncc23)CC1)C(=O)CCN gave Pks13 thioesterase: 8.117%; PfKRS1: 3.181%; LiHisRS: 12.08%; MtTrpRS: -4.023%.
Cc1nccn1CCCn1cncc1-c1ccc2c(c1)CCCN2C gave Pks13 thioesterase: -9.497%; PfKRS1: 1.358%; LiHisRS: 30.87%; MtTrpRS: -8.925%.
Cc1cccc(N2CC3(CCN(c4nncs4)C3)CC2=O)c1 (stereo not given) gave Pks13 thioesterase: -11.6%; PfKRS1: -1.273%; LiHisRS: 19.44%; MtTrpRS: -5.717%.
CN(C)CCNc1ccc(-c2nc(COc3ccccc3)no2)cn1 gave Pks13 thioesterase: -12.97%; PfKRS1: 3.643%; LiHisRS: 8.571%; MtTrpRS: -2.519%.